Among the data in publication PMC4766407 are binding values, retold here.

Sequences of proteins named here, by UniProt entry; tags and fusion partners are left off.
UniProt O75925: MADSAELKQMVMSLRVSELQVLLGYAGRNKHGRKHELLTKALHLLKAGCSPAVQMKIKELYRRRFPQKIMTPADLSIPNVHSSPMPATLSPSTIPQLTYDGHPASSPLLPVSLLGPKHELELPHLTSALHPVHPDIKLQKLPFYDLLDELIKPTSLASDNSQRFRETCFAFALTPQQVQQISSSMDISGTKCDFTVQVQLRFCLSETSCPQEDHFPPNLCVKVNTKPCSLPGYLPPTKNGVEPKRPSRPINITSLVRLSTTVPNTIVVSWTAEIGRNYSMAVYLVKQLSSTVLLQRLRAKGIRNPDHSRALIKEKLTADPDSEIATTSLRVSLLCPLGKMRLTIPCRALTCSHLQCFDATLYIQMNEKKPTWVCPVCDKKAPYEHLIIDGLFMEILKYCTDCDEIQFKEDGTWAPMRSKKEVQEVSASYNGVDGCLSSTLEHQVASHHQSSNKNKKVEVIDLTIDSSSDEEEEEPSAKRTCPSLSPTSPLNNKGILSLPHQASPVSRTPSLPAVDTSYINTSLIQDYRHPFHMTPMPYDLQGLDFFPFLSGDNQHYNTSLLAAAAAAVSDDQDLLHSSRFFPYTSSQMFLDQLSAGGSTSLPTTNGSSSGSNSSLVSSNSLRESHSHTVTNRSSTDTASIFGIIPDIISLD

Results are given in words; binding and its absence hold for the method and conditions named. Binding seen in cells or lysates may run through a third protein. Some results given as binding are weak or reduced against the parent protein; the word gives no strength.

Experiment [1] concerns the target T1, phosphorylated signal transducer and activator of transcription-6 (p-STAT6) (human (endogenous in HFL-1 and BEAS-2B)) (UniProt P42226).
T1 sequence (chain, phosphorylated (p-STAT6); the site is not printed): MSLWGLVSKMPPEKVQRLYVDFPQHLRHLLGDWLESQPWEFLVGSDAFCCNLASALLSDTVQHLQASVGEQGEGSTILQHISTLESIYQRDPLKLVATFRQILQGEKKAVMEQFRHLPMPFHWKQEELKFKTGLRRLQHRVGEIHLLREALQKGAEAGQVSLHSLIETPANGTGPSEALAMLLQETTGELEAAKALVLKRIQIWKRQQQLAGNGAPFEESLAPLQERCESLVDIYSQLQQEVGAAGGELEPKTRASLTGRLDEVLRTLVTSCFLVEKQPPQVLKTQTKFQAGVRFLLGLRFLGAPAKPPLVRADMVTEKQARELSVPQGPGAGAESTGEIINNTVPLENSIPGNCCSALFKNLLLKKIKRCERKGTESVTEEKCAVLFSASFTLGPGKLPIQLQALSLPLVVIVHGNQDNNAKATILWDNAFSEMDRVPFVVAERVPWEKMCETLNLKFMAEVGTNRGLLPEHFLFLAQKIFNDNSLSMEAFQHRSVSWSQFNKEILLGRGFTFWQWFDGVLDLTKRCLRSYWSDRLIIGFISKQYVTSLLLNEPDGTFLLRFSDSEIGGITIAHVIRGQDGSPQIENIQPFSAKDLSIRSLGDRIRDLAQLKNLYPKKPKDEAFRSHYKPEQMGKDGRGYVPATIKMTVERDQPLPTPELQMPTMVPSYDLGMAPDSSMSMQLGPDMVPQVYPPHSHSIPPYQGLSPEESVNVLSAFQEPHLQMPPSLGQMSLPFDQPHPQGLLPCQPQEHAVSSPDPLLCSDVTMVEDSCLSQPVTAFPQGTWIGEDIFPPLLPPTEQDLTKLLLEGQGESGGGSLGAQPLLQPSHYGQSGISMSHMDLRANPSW
Nature of the experiment: co-IP; lysate of HFL-1 cells with or without IL-4 (20 ng/mL, 24 h); 1 ug anti-p-STAT6 or anti-PIAS1 antibody overnight at 4 C, anti-IgG as negative control; Protein-A/G agarose 4 h at 4 C; five washes with cold PBS; Western blotting. Background: Immunoblotting shows a protein as a band on a membrane.

Experiment [2] has as its target T1, phosphorylated signal transducer and activator of transcription-6 (p-STAT6) (human (endogenous in HFL-1 and BEAS-2B)). In words: co-IP; lysate of BEAS-2B cells with or without IL-4 (20 ng/mL, 24 h); 1 ug anti-p-STAT6 or anti-PIAS1 antibody overnight at 4 C, anti-IgG as negative control; Protein-A/G agarose 4 h at 4 C; five washes with cold PBS; Western blotting.

With “protein inhibitor of activated STAT 1 (PIAS1) (from UniProt O75925 1-651)”, the figures for the binding result in experiment [1] and in experiment [2] were “binds” and “no binding (condition: in BEAS-2B cells)”, respectively.
